These are yes or no findings as the source states them, for the method shown. Some entries that bind do so weakly or less than the wild type.
Target: T1, major royal jelly protein 1 (Apis mellifera L.) (UniProt O18330)
T1 sequence: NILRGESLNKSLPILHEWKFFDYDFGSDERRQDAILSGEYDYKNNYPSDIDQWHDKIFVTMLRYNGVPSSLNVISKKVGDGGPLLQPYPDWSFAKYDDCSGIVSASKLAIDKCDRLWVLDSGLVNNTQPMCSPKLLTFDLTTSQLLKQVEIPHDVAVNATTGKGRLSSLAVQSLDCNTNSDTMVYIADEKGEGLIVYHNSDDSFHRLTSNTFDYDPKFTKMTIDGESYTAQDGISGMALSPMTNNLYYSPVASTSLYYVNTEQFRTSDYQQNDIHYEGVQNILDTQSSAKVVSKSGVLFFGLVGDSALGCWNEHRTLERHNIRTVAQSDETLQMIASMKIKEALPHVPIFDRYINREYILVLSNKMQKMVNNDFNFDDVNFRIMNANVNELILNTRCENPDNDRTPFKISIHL
Test: SEC; native complex (apisin) from royal jelly, precipitated at pH 4.8 and run on Sephacryl S-300HR in 0.1 M phosphate buffer with 0.3 M NaCl, pH 7.2; single peak on size-exclusion HPLC; components of the peak identified by SDS-PAGE, LC-MS of digests and intact mass

B1: apisimin (protein, UniProt Q8ISL8 25-78)
chain: KTSISVKGESNVDVVSQINSLVSSIVSGANVSAVLLAQTLVNILQILIDANVFA
binding: binds

Reference: publication PMC5045987
